Experimental data reported in the supplement of paper PMC10849652.
The list shows a part of the results.

Chains of the proteins cited; added tags and fusions are not shown. Lines headed by an entry give the natural chain unless they say otherwise; changes in a name come on top.
UniProt Q9BSB4: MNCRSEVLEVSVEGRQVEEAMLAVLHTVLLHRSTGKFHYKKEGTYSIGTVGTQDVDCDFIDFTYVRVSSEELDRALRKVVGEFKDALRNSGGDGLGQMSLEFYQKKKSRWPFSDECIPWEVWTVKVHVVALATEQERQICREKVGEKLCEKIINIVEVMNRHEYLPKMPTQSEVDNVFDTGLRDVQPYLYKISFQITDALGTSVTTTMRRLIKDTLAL
UniProt P04424, whole entry, looked up: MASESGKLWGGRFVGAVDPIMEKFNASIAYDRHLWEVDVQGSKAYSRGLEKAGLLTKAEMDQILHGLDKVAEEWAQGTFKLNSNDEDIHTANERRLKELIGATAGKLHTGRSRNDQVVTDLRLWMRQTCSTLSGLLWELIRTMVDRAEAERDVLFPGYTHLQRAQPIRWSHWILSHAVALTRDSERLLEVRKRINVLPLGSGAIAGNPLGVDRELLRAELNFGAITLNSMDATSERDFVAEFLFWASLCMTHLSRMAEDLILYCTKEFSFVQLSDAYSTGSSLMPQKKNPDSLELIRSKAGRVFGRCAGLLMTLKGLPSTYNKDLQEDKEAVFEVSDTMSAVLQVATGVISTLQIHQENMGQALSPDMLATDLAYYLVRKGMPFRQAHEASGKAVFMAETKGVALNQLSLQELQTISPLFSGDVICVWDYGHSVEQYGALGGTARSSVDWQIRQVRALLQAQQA
UniProt Q92747, whole entry, looked up: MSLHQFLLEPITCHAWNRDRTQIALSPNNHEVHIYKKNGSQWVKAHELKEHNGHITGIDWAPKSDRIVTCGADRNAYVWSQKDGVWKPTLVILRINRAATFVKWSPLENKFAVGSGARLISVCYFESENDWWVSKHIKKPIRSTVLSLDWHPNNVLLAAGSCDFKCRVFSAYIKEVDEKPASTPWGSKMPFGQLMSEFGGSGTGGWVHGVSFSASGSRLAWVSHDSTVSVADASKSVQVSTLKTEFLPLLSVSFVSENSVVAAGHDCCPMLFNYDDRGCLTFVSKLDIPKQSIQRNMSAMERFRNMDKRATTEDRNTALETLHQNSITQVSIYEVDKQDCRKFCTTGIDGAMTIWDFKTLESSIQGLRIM
UniProt P98194: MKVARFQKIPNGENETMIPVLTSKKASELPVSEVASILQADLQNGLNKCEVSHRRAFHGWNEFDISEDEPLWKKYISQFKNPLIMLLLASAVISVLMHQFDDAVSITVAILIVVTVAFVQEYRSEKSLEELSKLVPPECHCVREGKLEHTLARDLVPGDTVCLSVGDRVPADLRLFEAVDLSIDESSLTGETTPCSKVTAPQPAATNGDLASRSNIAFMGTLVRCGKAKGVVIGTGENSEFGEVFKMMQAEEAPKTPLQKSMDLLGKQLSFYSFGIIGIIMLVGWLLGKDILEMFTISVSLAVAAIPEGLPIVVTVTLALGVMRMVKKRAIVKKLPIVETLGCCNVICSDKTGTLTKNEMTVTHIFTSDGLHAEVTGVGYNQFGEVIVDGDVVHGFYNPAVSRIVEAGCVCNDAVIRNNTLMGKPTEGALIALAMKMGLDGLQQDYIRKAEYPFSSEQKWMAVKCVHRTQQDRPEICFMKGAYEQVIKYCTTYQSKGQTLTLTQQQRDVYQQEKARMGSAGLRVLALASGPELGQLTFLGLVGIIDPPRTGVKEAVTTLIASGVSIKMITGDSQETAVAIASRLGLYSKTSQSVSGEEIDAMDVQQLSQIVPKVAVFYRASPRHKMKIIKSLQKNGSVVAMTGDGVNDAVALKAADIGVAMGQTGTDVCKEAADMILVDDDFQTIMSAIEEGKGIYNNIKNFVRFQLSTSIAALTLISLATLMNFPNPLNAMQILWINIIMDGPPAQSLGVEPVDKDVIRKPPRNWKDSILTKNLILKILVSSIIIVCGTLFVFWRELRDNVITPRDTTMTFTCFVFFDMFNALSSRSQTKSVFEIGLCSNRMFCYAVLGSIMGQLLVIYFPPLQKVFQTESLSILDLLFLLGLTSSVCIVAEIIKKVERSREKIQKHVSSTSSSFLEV
UniProt Q96BY7: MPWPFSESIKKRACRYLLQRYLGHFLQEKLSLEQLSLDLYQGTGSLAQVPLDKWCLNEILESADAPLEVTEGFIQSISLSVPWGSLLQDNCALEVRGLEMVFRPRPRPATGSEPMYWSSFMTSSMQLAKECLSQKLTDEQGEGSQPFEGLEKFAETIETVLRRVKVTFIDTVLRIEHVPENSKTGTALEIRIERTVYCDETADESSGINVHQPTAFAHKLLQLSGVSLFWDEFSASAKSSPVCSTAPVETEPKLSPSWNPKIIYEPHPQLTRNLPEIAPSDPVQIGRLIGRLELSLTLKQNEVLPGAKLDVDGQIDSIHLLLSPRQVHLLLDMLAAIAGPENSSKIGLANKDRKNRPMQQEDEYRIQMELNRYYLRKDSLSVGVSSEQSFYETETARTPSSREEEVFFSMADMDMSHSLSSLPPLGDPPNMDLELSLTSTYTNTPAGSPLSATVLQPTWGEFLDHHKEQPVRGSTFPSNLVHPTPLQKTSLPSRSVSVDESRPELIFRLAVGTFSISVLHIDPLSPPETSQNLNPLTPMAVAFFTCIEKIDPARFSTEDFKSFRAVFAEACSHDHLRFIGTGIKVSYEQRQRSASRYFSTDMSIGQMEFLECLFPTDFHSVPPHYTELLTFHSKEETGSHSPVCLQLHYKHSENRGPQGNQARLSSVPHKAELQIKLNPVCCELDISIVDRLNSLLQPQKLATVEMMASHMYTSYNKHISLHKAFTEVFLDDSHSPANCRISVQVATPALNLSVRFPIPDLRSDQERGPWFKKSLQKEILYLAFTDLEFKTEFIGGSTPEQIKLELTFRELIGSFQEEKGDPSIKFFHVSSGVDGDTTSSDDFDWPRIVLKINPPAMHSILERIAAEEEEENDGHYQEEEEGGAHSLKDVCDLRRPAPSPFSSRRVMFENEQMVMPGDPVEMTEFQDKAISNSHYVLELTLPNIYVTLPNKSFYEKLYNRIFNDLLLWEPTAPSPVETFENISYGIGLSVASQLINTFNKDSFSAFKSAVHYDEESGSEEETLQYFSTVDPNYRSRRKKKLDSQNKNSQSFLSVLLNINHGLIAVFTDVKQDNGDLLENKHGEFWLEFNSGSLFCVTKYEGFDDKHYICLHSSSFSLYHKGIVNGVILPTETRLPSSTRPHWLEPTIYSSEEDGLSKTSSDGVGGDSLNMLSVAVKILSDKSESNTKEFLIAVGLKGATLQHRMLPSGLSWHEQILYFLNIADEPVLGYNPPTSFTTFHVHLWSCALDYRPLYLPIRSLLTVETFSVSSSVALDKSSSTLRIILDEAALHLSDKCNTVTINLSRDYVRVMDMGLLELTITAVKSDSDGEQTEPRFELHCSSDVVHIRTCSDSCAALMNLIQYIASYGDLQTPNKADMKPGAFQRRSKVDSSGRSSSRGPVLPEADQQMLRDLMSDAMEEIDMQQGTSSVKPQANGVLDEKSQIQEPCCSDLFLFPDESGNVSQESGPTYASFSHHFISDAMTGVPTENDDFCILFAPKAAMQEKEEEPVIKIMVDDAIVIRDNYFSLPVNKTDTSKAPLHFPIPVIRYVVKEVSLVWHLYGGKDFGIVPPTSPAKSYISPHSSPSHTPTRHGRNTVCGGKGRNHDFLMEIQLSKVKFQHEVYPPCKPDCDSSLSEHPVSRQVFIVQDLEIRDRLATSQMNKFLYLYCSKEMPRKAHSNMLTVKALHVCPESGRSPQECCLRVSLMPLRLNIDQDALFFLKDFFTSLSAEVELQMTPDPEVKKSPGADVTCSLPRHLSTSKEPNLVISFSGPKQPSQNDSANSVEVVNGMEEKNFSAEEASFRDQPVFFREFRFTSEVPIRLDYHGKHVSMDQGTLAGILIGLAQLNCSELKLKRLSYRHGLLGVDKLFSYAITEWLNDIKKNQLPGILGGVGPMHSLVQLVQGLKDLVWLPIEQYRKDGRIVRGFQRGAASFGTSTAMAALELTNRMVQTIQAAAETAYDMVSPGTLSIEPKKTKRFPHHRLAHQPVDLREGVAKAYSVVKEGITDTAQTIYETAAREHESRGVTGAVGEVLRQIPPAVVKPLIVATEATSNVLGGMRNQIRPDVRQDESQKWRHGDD
UniProt O75348, whole entry, looked up: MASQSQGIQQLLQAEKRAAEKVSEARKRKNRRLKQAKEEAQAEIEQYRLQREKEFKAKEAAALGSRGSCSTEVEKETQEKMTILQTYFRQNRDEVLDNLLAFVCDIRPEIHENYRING
UniProt Q7L266: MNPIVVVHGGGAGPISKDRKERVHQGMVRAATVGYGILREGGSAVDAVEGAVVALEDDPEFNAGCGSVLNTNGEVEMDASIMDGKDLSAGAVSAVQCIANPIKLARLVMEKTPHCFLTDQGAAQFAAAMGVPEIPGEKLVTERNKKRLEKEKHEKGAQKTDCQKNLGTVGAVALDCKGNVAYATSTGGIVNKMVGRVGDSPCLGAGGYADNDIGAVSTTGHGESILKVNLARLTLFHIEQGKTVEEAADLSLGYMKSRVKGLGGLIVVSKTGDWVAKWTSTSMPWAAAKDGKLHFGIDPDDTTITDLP
UniProt O75787, whole entry, looked up: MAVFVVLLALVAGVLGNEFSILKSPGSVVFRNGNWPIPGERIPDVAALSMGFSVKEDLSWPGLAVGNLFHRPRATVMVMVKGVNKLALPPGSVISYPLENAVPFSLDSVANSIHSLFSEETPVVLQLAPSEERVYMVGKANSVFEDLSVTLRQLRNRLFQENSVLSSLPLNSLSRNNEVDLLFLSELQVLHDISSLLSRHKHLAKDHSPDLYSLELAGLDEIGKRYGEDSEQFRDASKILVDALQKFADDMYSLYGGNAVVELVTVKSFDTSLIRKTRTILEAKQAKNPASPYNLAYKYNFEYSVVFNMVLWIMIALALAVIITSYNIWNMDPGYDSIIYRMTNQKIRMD
UniProt Q9Y294, whole entry, looked up: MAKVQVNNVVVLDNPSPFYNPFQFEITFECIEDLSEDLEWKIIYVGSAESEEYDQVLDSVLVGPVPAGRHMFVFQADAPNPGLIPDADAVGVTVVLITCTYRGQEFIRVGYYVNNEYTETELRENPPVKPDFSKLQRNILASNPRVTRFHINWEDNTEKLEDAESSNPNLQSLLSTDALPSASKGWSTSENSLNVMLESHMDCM
UniProt P06576, whole entry, looked up: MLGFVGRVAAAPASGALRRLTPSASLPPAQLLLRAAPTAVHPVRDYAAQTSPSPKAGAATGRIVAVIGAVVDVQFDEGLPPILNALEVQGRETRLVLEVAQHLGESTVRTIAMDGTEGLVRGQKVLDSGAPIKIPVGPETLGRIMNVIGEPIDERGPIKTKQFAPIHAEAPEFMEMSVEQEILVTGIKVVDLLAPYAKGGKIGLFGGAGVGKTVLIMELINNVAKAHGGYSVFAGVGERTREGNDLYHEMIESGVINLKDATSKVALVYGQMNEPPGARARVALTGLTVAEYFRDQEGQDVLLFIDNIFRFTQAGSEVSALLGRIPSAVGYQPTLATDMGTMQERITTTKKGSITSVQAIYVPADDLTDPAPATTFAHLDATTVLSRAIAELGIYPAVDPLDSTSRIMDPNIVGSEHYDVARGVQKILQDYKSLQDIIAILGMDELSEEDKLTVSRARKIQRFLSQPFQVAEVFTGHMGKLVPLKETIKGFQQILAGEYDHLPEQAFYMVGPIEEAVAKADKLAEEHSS
UniProt P25705: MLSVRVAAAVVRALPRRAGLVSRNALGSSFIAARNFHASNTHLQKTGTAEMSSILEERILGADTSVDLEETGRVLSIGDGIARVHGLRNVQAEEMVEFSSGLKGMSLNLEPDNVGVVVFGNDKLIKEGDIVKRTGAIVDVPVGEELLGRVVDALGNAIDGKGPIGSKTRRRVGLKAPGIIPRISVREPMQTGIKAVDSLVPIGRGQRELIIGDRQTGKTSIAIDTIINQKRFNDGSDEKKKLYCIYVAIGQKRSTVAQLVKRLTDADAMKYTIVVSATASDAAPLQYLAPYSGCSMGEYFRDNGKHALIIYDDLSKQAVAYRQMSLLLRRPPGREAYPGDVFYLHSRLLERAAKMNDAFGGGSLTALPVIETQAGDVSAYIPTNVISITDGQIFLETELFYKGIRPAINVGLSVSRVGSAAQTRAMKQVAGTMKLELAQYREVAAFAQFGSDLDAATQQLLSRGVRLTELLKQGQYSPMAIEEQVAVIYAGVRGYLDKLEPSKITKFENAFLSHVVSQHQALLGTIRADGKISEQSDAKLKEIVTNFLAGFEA
UniProt Q9NVJ2: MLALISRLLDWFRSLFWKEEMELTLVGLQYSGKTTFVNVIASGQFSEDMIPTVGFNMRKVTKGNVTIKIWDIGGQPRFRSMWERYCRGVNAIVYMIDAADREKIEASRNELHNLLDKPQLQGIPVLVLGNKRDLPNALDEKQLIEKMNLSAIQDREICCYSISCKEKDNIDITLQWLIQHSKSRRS
UniProt P24539: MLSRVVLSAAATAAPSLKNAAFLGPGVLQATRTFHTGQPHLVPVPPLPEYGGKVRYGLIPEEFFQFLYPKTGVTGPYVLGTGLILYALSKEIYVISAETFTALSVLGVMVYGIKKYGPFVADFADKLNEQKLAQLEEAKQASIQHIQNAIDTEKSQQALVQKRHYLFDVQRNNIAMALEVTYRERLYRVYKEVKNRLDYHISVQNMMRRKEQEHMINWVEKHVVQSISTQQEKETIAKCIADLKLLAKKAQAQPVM

What was measured:
Test in all cases: log2 fold change, soluble protein after heating vs DMSO (PISA); higher = thermal stabilisation; K562 cells, 10 uM, 30 min; active = over 0.2 and 3.5 SD of the protein, either way, in both replicates (recomputed)
[1] = compound: CS(=O)(=O)c1ccc(-c2cnc(N)c(C(=O)Nc3ccccc3)n2)cc1
In short: (§1)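 Quantification of soluble protein used TMTpro 16plex LC-MS/MS, with channel sums equalised. Samples were the supernatant after 21,000xg for 90 min of pooled aliquots from K562 cells (2×10^6 cells/mL) treated with 10 μM compound for 30 min, heated for 3 min over 48°C-58°C, and extracted in PBS with 0.5% NP-40 at 4°C. Values, from duplicates, describe thermal stability against control samples on a log2 fold-change scale.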

crizotinib = compound: C[C@@H](Oc1cc(-c2cnn(C3CCNCC3)c2)cnc1N)c1c(Cl)ccc(F)c1Cl [crizotinib]
In short: as §1

[2] = compound: C[C@@H]1COCCN1C2=NC(=NC(=C2)C3(CC3)S(=O)(=O)C)C4=C5C=CNC5=CC=C4
In short: as §1

[3] = compound: C[C@H](C1=CC=C(C=C1)C(=O)NC2=C3C=CNC3=NC=C2)N
In short: as §1

duvelisib = compound: C[C@H](Nc1ncnc2nc[nH]c12)c1cc2cccc(Cl)c2c(=O)n1-c1ccccc1 [duvelisib]
In short: as §1

gandotinib = compound: Cc1cc(Nc2cc(CN3CCOCC3)c3nc(C)c(Cc4ccc(Cl)cc4F)n3n2)n[nH]1 [gandotinib]
In short: as §1

tozasertib = compound: Cc1cc(Nc2cc(N3CCN(C)CC3)nc(Sc3ccc(NC(=O)C4CC4)cc3)n2)n[nH]1 [tozasertib]
In short: as §1

[4] = compound: Cc1cc(SCc2sc(-c3ccc(C(F)(F)F)cc3)nc2C)ccc1OCC(=O)O
In short: as §1

doramapimod = compound: Cc1ccc(-n2nc(C(C)(C)C)cc2NC(=O)Nc2ccc(OCCN3CCOCC3)c3ccccc23)cc1 [doramapimod]
In short: as §1

ispinesib = compound: Cc1ccc(C(=O)N(CCCN)[C@@H](c2nc3cc(Cl)ccc3c(=O)n2Cc2ccccc2)C(C)C)cc1 [ispinesib]
In short: as §1

Measured: log2 fold change

ATG16L1 (UniProt Q676U5)
inactive: [1] 0.12 | crizotinib -0.1 | [2] 0.139 | [3] -0.035 | duvelisib 0.005 | gandotinib 0.013 | tozasertib -0.01 | [4] -0.017 | doramapimod 0 | ispinesib -0.003

ATG101 (UniProt Q9BSB4)
inactive: [1] -0.061 | crizotinib 0.018 | [2] -0.008 | [3] -0.012 | duvelisib 0.033 | gandotinib -0.007 | tozasertib -0.003 | [4] -0.044 | doramapimod -0.009 | ispinesib 0.044

ASL (UniProt P04424)
inactive: [1] 0 | crizotinib -0.002 | [2] 0.034 | [3] -0.016 | duvelisib -0.017 | gandotinib -0.021 | tozasertib -0.034 | [4] -0.04 | doramapimod -0.006 | ispinesib 0.012

ARL8A (UniProt Q96BM9)
inactive: [1] -0.063 | crizotinib -0.045 | [2] 0.023 | [3] 0.018 | duvelisib 0.12 | gandotinib -0.02 | tozasertib 0.124 | [4] -0.052 | doramapimod -0.011 | ispinesib -0.209

Retrieved one by one from above (two):
ASL (UniProt P04424)
inactive: [1] 0 | crizotinib -0.002 | [2] 0.034 | [3] -0.016 | duvelisib -0.017 | gandotinib -0.021 | tozasertib -0.034 | [4] -0.04 | doramapimod -0.006 | ispinesib 0.012

ATG101 (UniProt Q9BSB4)
inactive: [1] -0.061 | crizotinib 0.018 | [2] -0.008 | [3] -0.012 | duvelisib 0.033 | gandotinib -0.007 | tozasertib -0.003 | [4] -0.044 | doramapimod -0.009 | ispinesib 0.044

Next entries

ARPC1A (UniProt Q92747)
inactive: [1] -0.002 | crizotinib 0.027 | [2] 0.037 | [3] -0.068 | duvelisib 0.029 | gandotinib 0.09 | tozasertib 0.01 | [4] -0.035 | doramapimod 0.031 | ispinesib 0.066

ATP2C1 isoform 7 (UniProt P98194)
inactive: [1] -0.044 | crizotinib -0.04 | [2] 0.035 | [3] -0.001 | duvelisib 0.076 | gandotinib 0.027 | tozasertib -0.025 | [4] 0.005 | doramapimod -0.02 | ispinesib -0.195

ARL15 (UniProt Q9NXU5)
inactive: [1] 0.02 | crizotinib 0.005 | [2] 0.081 | [3] -0.145 | duvelisib 0.105 | gandotinib -0.039 | tozasertib -0.019 | [4] 0.034 | doramapimod -0.06 | ispinesib 0.07

ATG2B (UniProt Q96BY7)
inactive: [1] -0.001 | crizotinib -0.009 | [2] -0.008 | [3] -0.02 | duvelisib 0.102 | gandotinib -0.082 | tozasertib 0.006 | [4] -0.04 | doramapimod 0.028 | ispinesib -0.047

ATP6V1G1 (UniProt O75348)
inactive: [1] -0.066 | crizotinib -0.069 | [2] -0.037 | [3] 0.022 | duvelisib 0.016 | gandotinib 0.037 | tozasertib 0.024 | [4] -0.012 | doramapimod 0.031 | ispinesib -0.119

ATG5 (UniProt Q9H1Y0)
inactive: [1] 0.05 | crizotinib -0.042 | [2] 0.022 | [3] -0.031 | duvelisib 0.073 | gandotinib -0.008 | tozasertib 0.059 | [4] -0.032 | doramapimod -0.025 | ispinesib 0.055

ASRGL1 (UniProt Q7L266)
inactive: [1] 0.085 | crizotinib 0.042 | [2] 0.044 | [3] -0.019 | duvelisib 0.022 | gandotinib -0.079 | tozasertib 0.011 | [4] -0.063 | doramapimod -0.005 | ispinesib 0.012

ARV1 (UniProt Q9H2C2)
inactive: [1] 0.006 | crizotinib 0.043 | [2] 0.01 | [3] -0.046 | duvelisib -0.028 | gandotinib -0.147 | tozasertib 0.032 | [4] 0.002 | doramapimod 0.037 | ispinesib -0.057

ATP1A3 isoform 3 (UniProt P13637)
inactive: [1] 0.032 | crizotinib 0.155 | [2] 0.019 | [3] -0.089 | duvelisib 0.04 | gandotinib -0.015 | tozasertib -0.075 | [4] -0.064 | doramapimod -0.022 | ispinesib 0.093

ARPC3 (UniProt O15145)
inactive: [1] 0.02 | crizotinib 0.051 | [2] 0.057 | [3] -0.146 | duvelisib 0.014 | gandotinib 0.039 | tozasertib 0.076 | [4] 0.009 | doramapimod -0.023 | ispinesib 0.151

ARPC1B (UniProt O15143)
inactive: [1] 0.035 | crizotinib -0.005 | [2] -0.1 | [3] -0.257 | duvelisib -0.013 | gandotinib 0.12 | tozasertib 0.086 | [4] 0.037 | doramapimod -0.007 | ispinesib 0.194

ATP6AP2 (UniProt O75787)
inactive: [1] 0.026 | crizotinib -0.014 | [2] 0.004 | [3] 0.018 | duvelisib 0.026 | gandotinib 0.002 | tozasertib -0.141 | [4] 0.051 | doramapimod 0.035 | ispinesib -0.054

ATPAF1 (UniProt Q5TC12)
inactive: [1] -0.042 | crizotinib -0.003 | [2] -0.026 | [3] -0.032 | duvelisib -0.026 | gandotinib -0.009 | tozasertib -0.082 | [4] -0.033 | doramapimod -0.05 | ispinesib 0

ARRB2 isoform 4 (UniProt P32121)
inactive: [1] 0.025 | crizotinib 0.037 | [2] 0.081 | [3] -0.029 | duvelisib 0.103 | gandotinib -0.034 | tozasertib -0.012 | [4] -0.034 | doramapimod 0.062 | ispinesib -0.018

ASF1A (UniProt Q9Y294)
inactive: [1] -0.077 | crizotinib -0.025 | [2] -0.096 | [3] -0.036 | duvelisib -0.029 | gandotinib -0.107 | tozasertib 0.01 | [4] 0.043 | doramapimod -0.011 | ispinesib 0.059

ATP5F1B (UniProt P06576)
inactive: [1] 0.02 | crizotinib 0.059 | [2] 0.002 | [3] -0.023 | duvelisib 0.004 | gandotinib 0.004 | tozasertib -0.014 | [4] -0.022 | doramapimod 0.012 | ispinesib 0.003

ARMT1 (UniProt Q9H993)
inactive: [1] 0.051 | crizotinib -0.562 | [2] 0.001 | [3] 0.186 | duvelisib -0.196 | gandotinib 0.193 | tozasertib 0.096 | [4] 0.225 | doramapimod 0.108 | ispinesib -0.443

ARSB (UniProt P15848)
inactive: [1] -0.02 | crizotinib -0.052 | [2] 0.042 | [3] 0.139 | duvelisib 0.176 | gandotinib -0.037 | tozasertib 0.064 | [4] 0.033 | doramapimod 0.032 | ispinesib -0.032

ARPC2 (UniProt O15144)
inactive: [1] 0.042 | crizotinib 0.065 | [2] -0.007 | [3] -0.064 | duvelisib 0.009 | gandotinib 0.038 | tozasertib 0.027 | [4] -0.019 | doramapimod -0.001 | ispinesib 0.06

ARMC6 (UniProt Q6NXE6)
inactive: [1] 0.131 | crizotinib -0.066 | [2] -0.262 | [3] 0.416 | duvelisib -0.147 | gandotinib 0.011 | tozasertib 0.133 | [4] 0.24 | doramapimod 0.318 | ispinesib -0.302

ATG2A isoform 3 (UniProt Q2TAZ0)
inactive: [1] 0.017 | crizotinib -0.019 | [2] 0.071 | [3] -0.036 | duvelisib 0.046 | gandotinib -0.048 | tozasertib -0.012 | [4] -0.025 | doramapimod 0.006 | ispinesib -0.016

ATP5F1A (UniProt P25705)
inactive: [1] -0.01 | crizotinib 0.02 | [2] -0.02 | [3] -0.041 | duvelisib -0.011 | gandotinib -0.024 | tozasertib -0.01 | [4] -0.034 | doramapimod 0.004 | ispinesib -0.02

ARL8B (UniProt Q9NVJ2)
inactive: [1] 0.008 | crizotinib -0.082 | [2] -0.013 | [3] -0.045 | duvelisib 0.016 | gandotinib 0.062 | tozasertib -0.011 | [4] -0.002 | doramapimod -0.025 | ispinesib -0.123

ATP5PB (UniProt P24539)
inactive: [1] 0.033 | crizotinib 0.084 | [2] 0.057 | [3] -0.03 | duvelisib -0.004 | gandotinib 0.004 | tozasertib 0.018 | [4] -0.006 | doramapimod -0.018 | ispinesib 0.026

ATP5MF (UniProt P56134)
inactive: [1] 0.01 | crizotinib 0.042 | [2] 0.023 | [3] -0.035 | duvelisib 0.048 | gandotinib 0.103 | tozasertib 0.002 | [4] -0.056 | doramapimod -0.037 | ispinesib 0.023
